Values quoted from earlier work as cited in US5691365A, “Nicotinic receptor antagonists in the treatment of neuropharmacological disorders” (University of Kentucky Research Foundation, priority 1995, dated 1997).
At least one compound was matched to its structure with a doubt left.

Test system: rabbit caudate nucleus
Details: cited from earlier work

## CC(=O)OCC[N+](C)(C)C [acetylcholine]
  effect on basal outflow of GABA: accelerated the basil outflow of gamma-aminobutyric acid (GABA)
